{"source": "the supplement of paper PMC6411743", "test_in_all_cases": "NP40-soluble protein abundance relative to vehicle (solubility fold change) (ratio); higher = more soluble protein in presence of AMP-PNP", "key": {"UniProt Q9BUA3": {"target": "T1, UniProt Q9BUA3", "T1 sequence (whole entry)": "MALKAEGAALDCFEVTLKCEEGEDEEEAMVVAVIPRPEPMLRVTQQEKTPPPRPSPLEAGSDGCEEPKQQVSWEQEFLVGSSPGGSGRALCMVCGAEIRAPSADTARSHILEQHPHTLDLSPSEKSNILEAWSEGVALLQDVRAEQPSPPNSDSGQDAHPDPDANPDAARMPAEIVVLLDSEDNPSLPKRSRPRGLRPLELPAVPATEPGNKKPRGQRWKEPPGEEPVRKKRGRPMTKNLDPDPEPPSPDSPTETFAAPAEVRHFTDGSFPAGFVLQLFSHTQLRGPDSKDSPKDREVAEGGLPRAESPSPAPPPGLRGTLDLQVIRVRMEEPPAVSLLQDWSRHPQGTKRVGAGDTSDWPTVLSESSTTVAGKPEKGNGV", "procedure,_shortened": "(§1)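 Data come from three independent experiments in which Dounce-homogenised Jurkat crude lysate was treated at eight concentrations from 0.1 to 10 mM. Treatment ran 10 min at room temperature and then 3 min at 37 °C, after which 0.8% NP40 and benzonase were added for 60 min at 4 °C before ultracentrifugation. The supernatant underwent TMT labelling and LC-MS/MS, and vsn-normalised intensities were expressed as fold change against the detergent-processed vehicle in each replicate.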"}, "[1]": {"target": "T2, UniProt Q9BUJ2 and related entries", "T2 sequence (whole entry)": "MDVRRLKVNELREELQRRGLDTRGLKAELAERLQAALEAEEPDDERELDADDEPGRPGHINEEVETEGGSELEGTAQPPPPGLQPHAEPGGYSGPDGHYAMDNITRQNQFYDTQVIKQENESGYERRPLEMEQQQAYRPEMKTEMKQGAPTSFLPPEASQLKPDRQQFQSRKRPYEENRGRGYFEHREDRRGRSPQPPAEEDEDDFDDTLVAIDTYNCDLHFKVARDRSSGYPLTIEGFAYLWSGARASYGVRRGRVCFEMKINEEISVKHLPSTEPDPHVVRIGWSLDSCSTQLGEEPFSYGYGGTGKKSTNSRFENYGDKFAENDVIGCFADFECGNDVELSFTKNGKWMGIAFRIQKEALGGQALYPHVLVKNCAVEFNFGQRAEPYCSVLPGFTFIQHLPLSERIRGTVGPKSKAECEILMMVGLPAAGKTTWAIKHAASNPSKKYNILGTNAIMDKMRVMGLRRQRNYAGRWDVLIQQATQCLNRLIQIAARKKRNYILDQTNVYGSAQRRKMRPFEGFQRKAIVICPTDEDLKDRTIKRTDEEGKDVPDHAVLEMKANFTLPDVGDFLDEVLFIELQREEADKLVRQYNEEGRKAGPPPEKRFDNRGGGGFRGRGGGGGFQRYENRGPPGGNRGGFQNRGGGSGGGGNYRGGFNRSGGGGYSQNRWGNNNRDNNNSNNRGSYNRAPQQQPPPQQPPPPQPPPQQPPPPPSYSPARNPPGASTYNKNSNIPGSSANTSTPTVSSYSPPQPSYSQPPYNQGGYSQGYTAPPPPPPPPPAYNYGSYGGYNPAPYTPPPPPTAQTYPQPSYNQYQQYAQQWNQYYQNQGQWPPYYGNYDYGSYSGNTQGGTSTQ", "procedure,_shortened": "as §1"}, "UniProt Q9BVV7": {"target": "T3, UniProt Q9BVV7", "T3 sequence (whole entry)": "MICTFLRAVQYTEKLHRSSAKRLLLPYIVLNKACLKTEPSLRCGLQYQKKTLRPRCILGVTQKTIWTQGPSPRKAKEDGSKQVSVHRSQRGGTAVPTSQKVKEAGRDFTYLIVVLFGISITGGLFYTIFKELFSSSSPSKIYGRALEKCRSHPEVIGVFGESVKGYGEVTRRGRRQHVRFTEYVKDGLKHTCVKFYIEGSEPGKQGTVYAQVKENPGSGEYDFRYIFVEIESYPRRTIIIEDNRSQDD", "procedure,_shortened": "as §1"}, "[2]": {"target": "T4, UniProt Q9BX63 and related entries", "T4 sequence (whole entry)": "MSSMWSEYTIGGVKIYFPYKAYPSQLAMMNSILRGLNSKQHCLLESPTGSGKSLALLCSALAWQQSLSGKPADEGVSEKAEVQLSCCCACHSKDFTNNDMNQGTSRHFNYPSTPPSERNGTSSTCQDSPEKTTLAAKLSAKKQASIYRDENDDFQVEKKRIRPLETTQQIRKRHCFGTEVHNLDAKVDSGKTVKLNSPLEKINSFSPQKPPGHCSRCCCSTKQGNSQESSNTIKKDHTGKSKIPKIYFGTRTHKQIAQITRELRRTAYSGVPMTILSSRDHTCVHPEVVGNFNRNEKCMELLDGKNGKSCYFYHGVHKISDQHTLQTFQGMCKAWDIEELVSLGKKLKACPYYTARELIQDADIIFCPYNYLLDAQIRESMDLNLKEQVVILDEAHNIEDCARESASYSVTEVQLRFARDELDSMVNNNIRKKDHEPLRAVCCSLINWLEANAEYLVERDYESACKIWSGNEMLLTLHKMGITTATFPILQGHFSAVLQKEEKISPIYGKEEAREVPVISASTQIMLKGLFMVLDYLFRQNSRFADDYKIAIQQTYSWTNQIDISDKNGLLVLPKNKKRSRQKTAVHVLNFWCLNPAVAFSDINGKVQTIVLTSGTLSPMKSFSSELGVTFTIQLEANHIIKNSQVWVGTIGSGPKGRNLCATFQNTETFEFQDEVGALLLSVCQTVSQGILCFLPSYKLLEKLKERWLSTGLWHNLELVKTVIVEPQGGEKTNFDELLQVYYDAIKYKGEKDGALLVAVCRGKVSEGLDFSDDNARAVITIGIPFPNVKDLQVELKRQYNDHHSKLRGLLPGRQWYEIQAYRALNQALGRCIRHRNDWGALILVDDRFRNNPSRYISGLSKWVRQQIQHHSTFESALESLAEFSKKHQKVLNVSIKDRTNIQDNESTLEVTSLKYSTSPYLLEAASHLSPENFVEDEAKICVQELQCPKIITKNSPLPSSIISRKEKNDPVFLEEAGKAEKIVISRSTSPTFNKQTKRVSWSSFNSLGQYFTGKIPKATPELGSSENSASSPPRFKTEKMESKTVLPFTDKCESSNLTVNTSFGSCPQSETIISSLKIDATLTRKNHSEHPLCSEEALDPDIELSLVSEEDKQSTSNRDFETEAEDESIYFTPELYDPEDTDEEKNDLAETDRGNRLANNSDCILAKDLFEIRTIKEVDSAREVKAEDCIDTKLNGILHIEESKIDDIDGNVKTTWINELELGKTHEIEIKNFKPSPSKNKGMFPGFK", "procedure,_shortened": "as §1"}, "UniProt Q9BXJ9": {"target": "T5, UniProt Q9BXJ9", "T5 sequence (whole entry)": "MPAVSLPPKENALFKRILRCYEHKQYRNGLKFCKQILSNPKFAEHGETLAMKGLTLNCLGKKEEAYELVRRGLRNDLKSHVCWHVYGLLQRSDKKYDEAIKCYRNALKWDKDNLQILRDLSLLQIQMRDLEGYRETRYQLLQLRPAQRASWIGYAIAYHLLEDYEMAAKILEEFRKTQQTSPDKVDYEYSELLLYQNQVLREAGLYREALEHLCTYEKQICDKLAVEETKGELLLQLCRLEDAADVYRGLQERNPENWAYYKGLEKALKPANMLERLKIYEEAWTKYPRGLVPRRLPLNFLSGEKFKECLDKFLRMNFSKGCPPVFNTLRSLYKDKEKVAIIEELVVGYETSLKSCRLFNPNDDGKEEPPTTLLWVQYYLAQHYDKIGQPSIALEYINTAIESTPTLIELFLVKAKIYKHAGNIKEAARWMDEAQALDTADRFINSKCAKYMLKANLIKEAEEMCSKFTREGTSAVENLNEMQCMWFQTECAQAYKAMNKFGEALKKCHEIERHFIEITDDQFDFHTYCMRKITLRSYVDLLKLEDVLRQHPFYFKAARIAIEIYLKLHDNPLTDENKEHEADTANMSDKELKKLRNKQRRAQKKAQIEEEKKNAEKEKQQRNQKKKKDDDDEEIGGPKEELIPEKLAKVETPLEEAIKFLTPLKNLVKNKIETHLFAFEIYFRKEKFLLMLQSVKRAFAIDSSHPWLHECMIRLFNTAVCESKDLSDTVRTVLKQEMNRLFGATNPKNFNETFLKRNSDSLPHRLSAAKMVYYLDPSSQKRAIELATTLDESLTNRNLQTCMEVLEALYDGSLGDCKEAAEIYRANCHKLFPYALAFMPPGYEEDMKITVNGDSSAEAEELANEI", "procedure,_shortened": "as §1"}}, "note": "± gives the standard deviation of the averaged measurements. The entries are a selection whose mix differs from that of the whole data set."}
{"smiles": "Nc1ncnc2c1ncn2[C@@H]1O[C@H](COP(=O)(O)OP(=O)(O)NP(=O)(O)O)[C@@H](O)[C@H]1O", "note": "[adenylyl imidodiphosphate]", "values": [{"measurement": "NP40-soluble protein abundance", "setting": "UniProt Q9BUA3; concentration: 8mM", "value": "0.977 ± 0.046"}, {"measurement": "NP40-soluble protein abundance", "setting": "UniProt Q9BUA3; concentration: 10mM", "value": "0.981 ± 0.043"}, {"measurement": "NP40-soluble protein abundance", "setting": "[1]; concentration: 1mM", "value": "1.04 ± 0.021"}, {"measurement": "NP40-soluble protein abundance", "setting": "[1]; concentration: 2mM", "value": "1.05 ± 0.03"}, {"measurement": "NP40-soluble protein abundance", "setting": "[1]; concentration: 4mM", "value": "1.02 ± 0.019"}, {"measurement": "NP40-soluble protein abundance", "setting": "[1]; concentration: 6mM", "value": "1.01 ± 0.042"}, {"measurement": "NP40-soluble protein abundance", "setting": "[1]; concentration: 8mM", "value": "1.01 ± 0.043"}, {"measurement": "NP40-soluble protein abundance", "setting": "[1]; concentration: 10mM", "value": "0.976 ± 0.071"}, {"measurement": "NP40-soluble protein abundance", "setting": "UniProt Q9BVV7; concentration: 1mM", "value": "1.033 ± 0.0061"}, {"measurement": "NP40-soluble protein abundance", "setting": "UniProt Q9BVV7; concentration: 2mM", "value": "1.03 ± 0.078"}, {"measurement": "NP40-soluble protein abundance", "setting": "UniProt Q9BVV7; concentration: 4mM", "value": "1.04 ± 0.028"}, {"measurement": "NP40-soluble protein abundance", "setting": "UniProt Q9BVV7; concentration: 6mM", "value": "1.02 ± 0.036"}, {"measurement": "NP40-soluble protein abundance", "setting": "UniProt Q9BVV7; concentration: 8mM", "value": "1.0081 ± 9.9e-05"}, {"measurement": "NP40-soluble protein abundance", "setting": "UniProt Q9BVV7; concentration: 10mM", "value": "1.053 ± 0.0067"}, {"measurement": "NP40-soluble protein abundance", "setting": "[2]; concentration: 1mM", "value": "0.996 ± 0.038"}, {"measurement": "NP40-soluble protein abundance", "setting": "[2]; concentration: 2mM", "value": "1.01 ± 0.039"}, {"measurement": "NP40-soluble protein abundance", "setting": "[2]; concentration: 4mM", "value": "0.989 ± 0.019"}, {"measurement": "NP40-soluble protein abundance", "setting": "[2]; concentration: 6mM", "value": "0.98 ± 0.017"}, {"measurement": "NP40-soluble protein abundance", "setting": "[2]; concentration: 8mM", "value": "0.994 ± 0.046"}, {"measurement": "NP40-soluble protein abundance", "setting": "[2]; concentration: 10mM", "value": "0.983 ± 0.024"}, {"measurement": "NP40-soluble protein abundance", "setting": "UniProt Q9BXJ9; concentration: 1mM", "value": "1.01 ± 0.033"}, {"measurement": "NP40-soluble protein abundance", "setting": "UniProt Q9BXJ9; concentration: 2mM", "value": "0.98 ± 0.085"}, {"measurement": "NP40-soluble protein abundance", "setting": "UniProt Q9BXJ9; concentration: 4mM", "value": "1.03 ± 0.051"}, {"measurement": "NP40-soluble protein abundance", "setting": "UniProt Q9BXJ9; concentration: 6mM", "value": "1.03 ± 0.042"}, {"measurement": "NP40-soluble protein abundance", "setting": "UniProt Q9BXJ9; concentration: 8mM", "value": "1.06 ± 0.043"}]}
